Values from PubChem BioAssay AID1259254 (NCATS, 2017)

Assay: 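Gene knock-downs that lead to re-replication, shown by excess G2 DNA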 (primary screen)
System: human HCT116 colorectal cancer cells
Reagents: single siRNA against human genes
Duration: 3 days
Read-out: 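Nuclei stained with Hoechst and imaged; cell-cycle phase assigned by DNA content; G2 share scaled per plate, non-targeting siRNA 0%, GMNN siRNA 100%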
Scale: G2 robust z-score and G2 cells, % of GMNN control: higher = more G2 cells, more excess DNA replication; raw share of cells in G2: higher = larger share of cells with G2 DNA content
Rule for the call: 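An siRNA counts as active if its G2 robust z-score lies at least 5 MADs above the screen median; here such calls match roughly 38% of GMNN control or more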
The deposit covers about 59,000 reagents; this is an unselected part. Of all reagents, about 1,550 (2.6%) are marked active. 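G2 share is only a proxy for re-replication; each gene was hit by three separate siRNAs, and active genes were retested.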 Raw values are not corrected between plates. The numbers tell different reagents against one gene apart. The record does not give: the amount of reagent.

Target gene | reagent | G2 robust z-score | G2 cells, % of GMNN control | raw share of cells in G2 (%) | outcome
TRAPPC4 | 1 | 0.403 | 5.8 | 4.84 | inactive
TRAPPC4 | 2 | -0.132 | 2.04 | 6.83 | inactive
TRAPPC4 | 3 | 1.34 | 12.4 | 7.52 | inactive
KRT13 | 1 | -0.327 | 0.67 | 5.29 | inactive
KRT13 | 2 | 3.57 | 28.1 | 16.4 | inactive
KRT13 | 3 | -0.804 | -2.69 | 3.21 | inactive
SMDT1 | 1 | -0.529 | -0.755 | 2.76 | inactive
SMDT1 | 2 | 0.0119 | 3.05 | 3.89 | inactive
SMDT1 | 3 | 4.03 | 31.3 | 17.4 | inactive
KRT19 | 1 | 1.96 | 16.8 | 12.1 | inactive
KRT19 | 2 | 1.78 | 15.5 | 9.87 | inactive
KRT19 | 3 | 1.07 | 10.5 | 8.87 | inactive
TCP11L2 | 1 | 1.08 | 10.5 | 7.4 | inactive
TCP11L2 | 2 | -0.437 | -0.108 | 3.09 | inactive
TCP11L2 | 3 | -0.569 | -1.03 | 2.86 | inactive
LOC440313 | 1 | 0.687 | 7.8 | 6.63 | inactive
LOC440313 | 2 | -0.705 | -1.99 | 2.66 | inactive
LOC440313 | 3 | -0.48 | -0.41 | 2.98 | inactive
MRPS16 | 1 | -0.943 | -3.67 | 2.45 | inactive
MRPS16 | 2 | 2.47 | 20.4 | 12.2 | inactive
MRPS16 | 3 | 0.0708 | 3.47 | 4.35 | inactive
FGF8 | 1 | -0.824 | -2.83 | 3.97 | inactive
FGF8 | 2 | -0.0986 | 2.27 | 4.92 | inactive
FGF8 | 3 | 0.334 | 5.32 | 5.61 | inactive
ZNF595 | 1 | -0.3 | 0.857 | 3.39 | inactive
ZNF595 | 2 | -0.747 | -2.29 | 2.37 | inactive
ZNF595 | 3 | 4.89 | 37.4 | 16.6 | inactive
NDUFAF6 | 1 | -0.387 | 0.245 | 4.27 | inactive
NDUFAF6 | 2 | -0.606 | -1.29 | 2.69 | inactive
NDUFAF6 | 3 | 0.281 | 4.95 | 4.37 | inactive
CYTIP | 1 | 1.06 | 10.4 | 10 | inactive
CYTIP | 2 | 0.699 | 7.88 | 7.23 | inactive
CYTIP | 3 | 0.04 | 3.25 | 4.59 | inactive
H4C3 | 1 | 0.271 | 4.87 | 7.29 | inactive
H4C3 | 2 | 1.5 | 13.5 | 9.26 | inactive
H4C3 | 3 | -0.492 | -0.494 | 3.17 | inactive
RPL27AP2 | 1 | -0.129 | 2.06 | 4.56 | inactive
RPL27AP2 | 2 | -0.782 | -2.53 | 2.51 | inactive
RPL27AP2 | 3 | -0.145 | 1.95 | 5.6 | inactive
LRATD1 | 1 | -1.24 | -5.78 | 1.89 | inactive
LRATD1 | 2 | -0.811 | -2.74 | 2.07 | inactive
LRATD1 | 3 | -1.24 | -5.78 | 1.05 | inactive
F8A2 | 1 | 1.24 | 11.7 | 8.15 | inactive
F8A2 | 2 | -0.487 | -0.461 | 3.24 | inactive
F8A2 | 3 | -1.2 | -5.48 | 1.26 | inactive

Continued, starting with the last 2 of the part before.
Target gene | reagent | G2 robust z-score | G2 cells, % of GMNN control | raw share of cells in G2 (%) | outcome
F8A2 | 2 | -0.487 | -0.461 | 3.24 | inactive
F8A2 | 3 | -1.2 | -5.48 | 1.26 | inactive
IGFL1 | 1 | 0.206 | 4.42 | 5.5 | inactive
IGFL1 | 2 | 2.2 | 18.4 | 11.3 | inactive
IGFL1 | 3 | -0.587 | -1.16 | 3.72 | inactive
NDUFAF2P1 | 1 | -1.1 | -4.74 | 1.8 | inactive
NDUFAF2P1 | 2 | 1.05 | 10.4 | 7.48 | inactive
NDUFAF2P1 | 3 | 0.707 | 7.94 | 5.67 | inactive
EGLN1 | 1 | -1.41 | -6.95 | 2.8 | inactive
EGLN1 | 2 | 0.797 | 8.57 | 7.09 | inactive
EGLN1 | 3 | -0.646 | -1.58 | 3.66 | inactive
SLC6A17 | 1 | 1.5 | 13.5 | 11.7 | inactive
SLC6A17 | 2 | -0.525 | -0.728 | 4.68 | inactive
SLC6A17 | 3 | -0.93 | -3.58 | 2.98 | inactive
USP37 | 1 | -0.598 | -1.24 | 5.13 | inactive
USP37 | 2 | -0.687 | -1.87 | 4.25 | inactive
USP37 | 3 | 0.0186 | 3.1 | 5.07 | inactive
MASP1 | 1 | 1.19 | 11.4 | 9.52 | inactive
MASP1 | 2 | 5.11 | 38.9 | 18.7 | active
MASP1 | 3 | 0.212 | 4.46 | 5.57 | inactive
CTBS | 1 | -1.05 | -4.45 | 2.56 | inactive
CTBS | 2 | -0.144 | 1.95 | 5.66 | inactive
CTBS | 3 | 3.76 | 29.4 | 15.7 | inactive
RNF44 | 1 | 0.00232 | 2.98 | 6.15 | inactive
RNF44 | 2 | 1.99 | 17 | 11.2 | inactive
RNF44 | 3 | -0.728 | -2.16 | 2.37 | inactive
POMT2 | 1 | 0.851 | 8.95 | 10.2 | inactive
POMT2 | 2 | -0.331 | 0.635 | 4.4 | inactive
POMT2 | 3 | -1.18 | -5.33 | 2.24 | inactive
TIGD1 | 1 | -1.02 | -4.21 | 2.93 | inactive
TIGD1 | 2 | 0.123 | 3.83 | 7.78 | inactive
TIGD1 | 3 | 3.34 | 26.5 | 14.4 | inactive
RASD2 | 1 | 0.495 | 6.45 | 6.07 | inactive
RASD2 | 2 | -0.359 | 0.443 | 6.55 | inactive
RASD2 | 3 | -0.813 | -2.75 | 3.23 | inactive
MTND5P10 | 1 | 0.935 | 9.54 | 6.7 | inactive
MTND5P10 | 2 | 1.27 | 11.9 | 6.6 | inactive
MTND5P10 | 3 | -0.518 | -0.674 | 3.38 | inactive
OGN | 1 | 1.59 | 14.1 | 8.03 | inactive
OGN | 2 | -0.425 | -0.0205 | 5.2 | inactive
OGN | 3 | 1.11 | 10.7 | 9.11 | inactive
ZNF382 | 1 | 1.88 | 16.2 | 8.5 | inactive
ZNF382 | 2 | 4.76 | 36.5 | 22.4 | inactive
ZNF382 | 3 | -0.793 | -2.61 | 2.81 | inactive
